# Laboratory results published in PubChem BioAssay AID445 (National Center for Advancing Translational Sciences (NCATS), 2006).
# “And” between values parts separate entries of the source, which are not always exact repeats. Equal entries are not always repeated. The list shows a part of the results. Further columns of the screen follow, without active or inactive calls. Compounds called inactive in the main read-out are mostly missing here. Potencies come from curve fits of mixed quality, noted in brackets.
# Experiment: IkB Signaling
# Details: ABC-DLBCL IkBa-CBG/CBR dual luciferase ratio (green luciferase fused to IkBa over red control in OCI-Ly3 lymphoma cells), 4 h
# Summary of the method: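 Luminescence ratio of IκBα-fused green versus native red beetle luciferase in OCI-Ly3 cells, 4 h post-doxycycline with compound; red signal alone, scaled from basal (0%) to zero light (-100%), flagged nonspecific or cytotoxic effects.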
# [1] = measured here: control luc red channel unless noted
compound,measurement,setting,value
CCOC(=O)c1cccc(NC(=O)c2cnc(N3CCCCC3)c3ccccc23)c1,AC50,[1],"25.1 µM [falling, partial curve]"
Cc1ccc(CNC(=O)CN2CCCN(Cc3ccc(F)cc3)S2(=O)=O)cc1,AC50,[1],"0.316 µM [falling, partial curve]"
COc1ccc(-c2noc(CCC(=O)N3CCN(c4cccc(C(F)(F)F)c4)CC3)n2)cc1,AC50,[1],"3.98 µM [falling, full curve, poor fit]"
O=C(COc1ccccc1F)Nc1ccc(Cl)c(-c2nc3ccccc3[nH]2)c1,AC50,[1],"15.8 µM [falling, partial curve]"
CCn1c(SC)nnc1-c1sc2cc(Cl)ccc2c1Cl,AC50,[1],"15.8 µM [falling, partial curve]"
Clc1cccc2sc(N3CCN(c4ccccc4)CC3)nc12,AC50,[1],"31.6 nM [rising, single point] [measured here: IkB-luc green channel]"
CCc1cccc(NC(=O)CC2Oc3ccc(C)cc3NC2=O)c1 (configuration not stated),AC50,[1],"7.94 µM [rising, partial curve]"
O=C(NCCS(=O)(=O)N1CCN(c2cccc(Cl)c2)CC1)c1cc(=O)c2ccccc2o1,AC50,[1],"3.16 µM [falling, partial curve, poor fit]"
COc1ccccc1N(C(C)=O)C1SC(=O)N(c2ccccc2)C1=O (configuration not stated),AC50,[1],"3.16 µM [falling, full curve]"
COc1cc(-c2nnn(CC(=O)NCc3ccccc3)n2)cc(OC)c1OC,AC50,[1],"39.8 µM [falling, single point]"
CCn1c(=S)sc2c(=O)n(-c3ccccc3)c(SCC(=O)NCc3ccco3)nc21,AC50,[1],"7.94 µM [falling, partial curve]"
Cc1cccc(N2CCN(c3ncnc4c3c(-c3ccccc3)cn4-c3ccccc3)CC2C)c1 (configuration not stated),AC50,[1],"25.1 µM [falling, single point]"
CC(=O)N1c2c(cc(Br)cc2S(=O)(=O)NCC2COc3ccccc3O2)CC1C (configuration not stated),AC50,[1],"15.8 µM [falling, partial curve]"
Cc1cccc(-c2nc(CS(=O)CC(=O)NCCCSC3CCCCC3)c(C)o2)c1 (configuration not stated),AC50,[1],"15.8 µM [falling, partial curve]"
COc1cc(NC(=O)c2cc(-c3cccc(Cl)c3)on2)c(OC)cc1Cl,AC50,[1],"20 µM [falling, single point]"
Cc1ccc(N(CC(=O)N2CCN(c3cc(Cl)ccc3C)CC2)S(=O)(=O)c2c(C)noc2C)cc1,AC50,[1],"3.98 µM [falling, full curve]"
COc1ccc(NC(=O)c2sc3nc(C)c(C(=O)Nc4ccc(C)cc4C)c(-c4cccs4)c3c2N)cc1,AC50,[1],"3.98 µM [falling, full curve]"
COc1ccc(OC)c(NC(=O)c2sc3nc4c(cc3c2N)CCCCCC4)c1,AC50,[1],"25.1 µM [falling, partial curve]"
Cc1ccc(C)c(N2CCN(C(c3ccc(F)cc3)c3nnc(-c4ccccc4)o3)CC2)c1 (configuration not stated),AC50,[1],"1.26 µM [falling, full curve]"
CN(C)CCNS(=O)(=O)c1ccc(Cl)cc1,AC50,[1],"15.8 µM [falling, partial curve]"
Cc1ccccc1CSc1cn(CC(=O)N2CCCC2)c2ccccc12,AC50,[1],"12.6 µM [falling, partial curve]"
CC(=O)c1ccc(N2CCN(C(=O)Cn3ncc4c3-c3ccccc3OC4)CC2)cc1,AC50,[1],"15.8 µM [falling, partial curve]"
COc1ccccc1/C=C/c1nc(C#N)c(NC(C)c2ccccc2)o1 (configuration not stated),AC50,[1],"31.6 µM [falling, single point]"
CCOc1ccc(NC(=O)c2cnn3c(C(F)F)cc(-c4ccc(C)cc4)nc23)cc1,AC50,[1],"25.1 µM [rising, partial curve, poor fit]"
CC(C)c1cc(C(=O)Nc2cccc(Cl)c2)no1,AC50,[1],"10 µM [falling, partial curve]"
CCc1ccc(Sc2cc(C(=O)NCCCN3CCCC(C)C3)c3ccccc3n2)cc1 (configuration not stated),AC50,[1],"0.0631 µM [falling, full curve, poor fit]"
Cc1ccccc1CCNCc1c(C(=O)O)c(C)n(Cc2c(F)cccc2Cl)c1C,AC50,[1],"15.8 µM [falling, partial curve]"
Cc1ccc(-n2ncc(C(=O)N3CCN(C4CCCCC4)CC3)c2C2CCN(C(=O)OC(C)(C)C)CC2)cc1,AC50,[1],"39.8 µM [falling, single point]"
COc1cccc(OCCn2cc(C(=O)c3ccco3)c3ccccc32)c1,AC50,[1],"0.0501 µM [falling, full curve]"
CCCCCCNc1ncnc2c1sc1nc(N3CCOCC3)c3c(c12)CCCC3,AC50,[1],"1 µM [rising, full curve, poor fit]"
CCCCSCCCNC(=O)c1cc(-c2cccnc2)nc2ccc(S(=O)(=O)N3CCC(C)CC3)cc12,AC50,[1],"39.8 µM [rising, single point]"
Cc1oc2ccc(O)c(CN3CCN(Cc4ccccc4)CC3)c2c1C(=O)Nc1cccc(Cl)c1C,AC50,[1],"15.8 µM [falling, partial curve]"
O=C(Nc1ccc(Oc2ccccc2)cc1)C1CCN(S(=O)(=O)c2ccccc2)CC1,AC50,[1],"7.94 µM [falling, full curve]"
CCOC(=O)c1ccc(NC(=O)c2ccc3c(c2)CCN3S(=O)(=O)c2ccc(Cl)cc2)cc1,AC50,[1],"10 µM [falling, partial curve]"
COc1ccc(CNC(=O)c2cc(Nc3ccc(OC)cc3OC)nc3ccccc23)cc1,AC50,[1],"2 µM [falling, full curve]"
Cc1ccc(C)c(CN2C(=O)c3ccccc3Sc3ccc(C(=O)NCCCOC(C)C)cc32)c1,AC50,[1],"31.6 µM [falling, single point]"
O=C(CSc1n[nH]c(-c2ccccc2Cl)n1)N1CCN(c2ccc(F)cc2)CC1,AC50,[1],"39.8 µM [falling, single point]"
O=c1nc2c(-c3ccccc3F)n[nH]n2c2ccccc12,AC50,[1],"0.0251 µM [falling, full curve]"
COC(=O)c1cc(Cl)ccc1NC(=O)Cn1c(C)cc(C)c(C#N)c1=O,AC50,[1],"20 µM [falling, partial curve]"
CC(C)NC(=O)c1nn(C)c2c1CS(=O)(=O)c1ccccc1-2,AC50,[1],"25.1 µM [falling, single point]"
CCOC(=O)N1CCC(N(CCOC)C(=O)Nc2ccc(Cl)c(Cl)c2)CC1,AC50,[1],"12.6 µM [falling, partial curve]"
CC(=O)Nc1ccc2nc(SCc3ccccc3)sc2c1,AC50,[1],"1.58 µM [rising, partial curve]"
CCOC(=O)Cc1cnc(NC(=O)Cn2nnc(-c3ccc(OCC)cc3)n2)s1,AC50,[1],"31.6 µM [falling, partial curve]"
Clc1ccc(CN2CCc3nc(Nc4ccc5c(c4)OCCO5)ncc3C2)cc1,AC50,[1],"31.6 µM [falling, partial curve]"
Cc1cc(C(=O)Nc2nnc(C(F)(F)F)s2)no1,AC50,[1],"10 µM [falling, partial curve]"
CCOc1ccccc1CN(CCc1ccc2c(c1)OCO2)Cc1cc(OC)c(OC)cc1OC,AC50,[1],"25.1 µM [falling, single point]"
Cc1ccccc1C(=O)NCc1ccc2c(c1)CCN2C(=O)c1ccccc1,AC50,[1],"25.1 µM [falling, partial curve]"
CCOC(=O)N1CCC(NC(=O)c2cnn(-c3cccc(C)c3)c2C2CCN(C(=O)OC(C)(C)C)CC2)CC1,AC50,[1],"25.1 µM [falling, partial curve]"
COc1ccc(CNC(=O)C(=O)NCC(c2cccs2)S(=O)(=O)c2ccc(C)cc2)cc1 (configuration not stated),AC50,[1],"39.8 µM [falling, single point]"
O=C(c1ccc(F)cc1)N1c2ncnn2C2(CCCCC2)[C@@H]2CCCC[C@@H]21,AC50,[1],"12.6 µM [falling, partial curve]"
CCn1c(SCC(=O)Nc2cccc(Cl)c2)nnc1-c1nonc1NC(C)=O,AC50,[1],"39.8 µM [falling, single point]"
CCSC1=NC2(CCN(C(=O)NC3CCCCC3)CC2)N=C1c1ccc(C)c(C)c1,AC50,[1],"12.6 µM [falling, partial curve]"
Cc1noc(C)c1S(=O)(=O)NCCc1csc2nc(-c3ccc(F)cc3)nn12,AC50,[1],"25.1 µM [falling, partial curve]"
COc1ccc(OC)c(NC(=O)CCc2c(C)nc3c(-c4ccccc4)c(C)nn3c2C)c1,AC50,[1],"15.8 µM [falling, partial curve]"
CCCN(CCC)CCNC(=O)c1cc(Sc2ccc(Cl)cc2)nc2ccccc12,AC50,[1],"12.6 µM [falling, partial curve]"
Cc1ccc(S(=O)(=O)NCCCCCC(=O)Nc2nccs2)cc1,AC50,[1],"31.6 µM [falling, partial curve]"
Cc1cccc(CSCCNC(=O)CN(c2ccccc2)S(=O)(=O)N(C)C)c1,AC50,[1],"25.1 µM [falling, partial curve]"
CCN(c1ccccc1)S(=O)(=O)c1nnc(NC(=O)COc2ccccc2F)s1,AC50,[1],"10 µM [falling, partial curve]"
COc1ccc(-c2[nH]ncc2C(=O)NCc2ccccc2OC)cc1,AC50,[1],"20 µM [falling, single point]"
Cc1ccc(Nc2cc(-c3ccccc3)nc(C)n2)cc1,AC50,[1],"39.8 µM [falling, single point]"
COc1cc2c(c(OC)c1OC)-c1ccc(OC)c(=O)cc1[C@H](NC(C)=O)CC2,AC50,measured here: IkB-luc green channel,"398 nM [rising, full curve] and 126 nM [rising, full curve] and 316 nM [rising, full curve]"
same,AC50,measured here: control luc red channel,"158 nM [rising, full curve] and 126 nM [rising, full curve] and 251 nM [rising, full curve]"

# An excerpt of these results, tab-delimited.
compound	measurement	setting	value
COc1ccccc1N(C(C)=O)C1SC(=O)N(c2ccccc2)C1=O (configuration not stated)	AC50	[1]	3.16 µM [falling, full curve]
COc1cc(-c2nnn(CC(=O)NCc3ccccc3)n2)cc(OC)c1OC	AC50	[1]	39.8 µM [falling, single point]
CCn1c(=S)sc2c(=O)n(-c3ccccc3)c(SCC(=O)NCc3ccco3)nc21	AC50	[1]	7.94 µM [falling, partial curve]
